# According to US20260053801A1, “METHOD FOR TREATING AUTOPHAGY DEPENDENT CANCER WITH A PIKFYVE INHIBITOR” (The Regents of the University of Michigan, priority 2023, published 2026):
# At least one compound was matched to its structure with a doubt left.
# How the values were obtained:
# [1] = system: DU145 prostate cancer cells; assay: Vacuolization morphology of RFP-expressing DU145 cells; assay type: cell-based; settings: 300 nM ESK981; phenocopied siRNA targeting PIKFYVE
# [2] = system: BxPC-3 CDX (non-KRAS driven PDAC); assay: BxPC-3 CDX in SCID mice; assay type: in vivo, mouse; settings: 30 mg/kg per day PO
# [3] = system: UM-2 primary CDX tumors; assay: UM-2 primary CDX model; assay type: in vivo, mouse
# [4] = system: MHC-I; assay: MHC-I levels (western blot) in MIA-PaCa-2 cells; assay type: cell-based, human
# [5] = system: 7940B cells; assay: RNA-seq in 7940B cells; assay type: cell-based, mouse; settings: eight-hour treatment
# Method: RNA-seq libraries were prepared using 800 ng of total RNA. Ribosomal RNA were removed by enzymatic digestion of the specific probe-bound duplex rRNA, and then fragmented to around 200-300 bp with heat in fragmentation buffer (KAPA RNA Hyper+RiboErase HMR, Roche). Double-stranded cDNA was then synthesized by reverse transcription and underwent end-repair and ligation using New England Biolabs (NEB) adapters. Final library preparation was then prepared by amplification with 2×KAPA HiFI HotStart mix and NEB dual barcode. Library quality was measured on an Agilent 2100 Bioanalyzer (DNA 1000 chip) for concentration and product size. Paired-end libraries were sequenced with the Illumina NovaSeq, (2×151 nucleotide read length) with sequence coverage to 30-40 million paired reads. Reads were demultiplexed using Illumina's bcl2fastq conversion software v2.20. Transcripts were quantified by the alignment-free approach kallisto using index generated from mouse reference genome (mm10) and then summed to obtain gene level counts. Differential analysis was performed using limma-voom after TMM-normalization of gene level counts with calcNormFactors of edgeR. Genes with mean Transcripts Per Million (TPM) less than 1 in both control and treatment groups were considered as lowly expressed genes and excluded for differential analysis. […]
# [6] = system: KPC model (KrasG12D/+; Trp53R172H/+; p48Cre); assay: KPC genetically engineered mouse model of PDAC; assay type: in vivo
# [7] = system: human PNET cell line, QGP-1, xenografts; assay: QGP-1 PNET xenograft; assay type: in vivo; settings: 30 mg/kg for five days
# [8] = system: LC3 lipidation; assay: LC3 lipidation / GFP-LC3 puncta in prostate cancer cell lines; assay type: cell-based; settings: within a short period of treatment
# [9] = system: 7940B cells; assay: Targeted lipidomics in 7940B cells; assay type: cell-based, mouse; settings: 24 hours; apilimod 100 nM, ESK981 1000 nM
# Method: Sample preparation: Samples for lipidomics analyses were prepared according to the automatic dual-metabolite/lipid sample preparation workflow described in the Agilent application note 5994-5065EN. Briefly, 1 million cells were washed in PBS and lysed with 1:1 trifluoroethanol/water at room temperature. Lysates were transferred to microcentrifuged tubes, incubated for 10 minutes, and then centrifuged at 250×g for 30 seconds. Samples were then dehydrated under reduced pressure with no heat. […]
# LC-MS/MS analysis: samples were analyzed on an Agilent 1290 Infinity II Bio LC ultra-high performed liquid chromatography (UPLC) system consisting of a high-pressure binary pump, multicolumn thermostat, and a temperature controlled multi-sampler. Samples were analyzed in randomized order on an Agilent 649C triple quadrupole mass spectrometer equipped with an Agilent Jet Stream Dual ESI ion source. Specifically, samples were analyzed with the reverse phase LC-MS/MS method reported in the Agilent application note 5994-3747EN. After acquisition, datasets were processed with MassHunter Quantitative analysis software and subsequently imported into Mass Profiler Professional (MPP) for chemometric analysis. […]
# [10] = system: NEPC tumors; assay: Percent tumor growth inhibition, NEPC versus AR-positive CRPC tumor models; settings: mouse, in vivo
# [11] = system: LTL610 xenografts; assay: LTL610 NEPC PDX in SCID mice; assay type: in vivo, mouse; settings: 30 mg/kg five days per week
# [12] = system: autophagic flux in Panc 04.03 cells; assay: GFP-LC3-RFP-LC3ΔG autophagic flux probe assay in Panc 04.03 cells; assay type: cell-based, human; settings: apilimod 300 nM, ESK981 1000 nM, chloroquine
# Source text: Generation of the autophagic flux probe in 7940B, Panc 04.03, and iKRAS was done according to the original author's instructions. Kaizuka, T. et al., Mol Cell 64, 835-849, doi:10.1016/j.molcel.2016.09.037 (2016). Briefly, cells were infected with pMRX-IP-GFP-LC3-RFP-LC3DG, which was a gift from Noboru Mizushima (Addgene plasmid #84572; http://n2t.net/addgene:84572; RRID:Addgene_84572). Following puromycin selection, single-cell clones were expanded and genotyped to ensure the absence of homologous recombination between two LC3 fragments during retrovirus integration.
# 15,000 cells were seeded in 96-well plates. After overnight incubation, cells were treated with the indicated compounds for 24 hours. […] Fluorescent signals were detected using the Infinite M1000 Pro plate reader (Tecan).
# [13] = system: LTL545 NEPC PDX tumors; assay: LTL545 NEPC PDX model; assay type: in vivo, mouse
# [14] = prophylactic, 30 mg/kg QD PO for 4 weeks
smiles,measurement,setting,value
"CC(C)Cn1c2ccc(Nc3ncccn3)cc2c2c3c(c4c(c21)CCc1nn(C)cc1-4)C(=O)NC3 [ESK981, 13-isobutyl-4-methyl-10-(pyrimidin-2-ylamino)-1,2,4,7,8,13-hexahydro-6H-indazolo[5,4-a]pyrrolo[3,4-c]carbazol-6-one]",vacuolization morphology,[1],induced vacuolization
same,tumor growth and tumor weight at endpoint,[2],suppressed tumor growth and reduced tumor weight
same,tumor volume before and after treatment,[3]; 5 days treatment,Regression in most of the tumors
same,apoptosis (TUNEL staining and PARP cleavage),[3]; after 5 days of treatment,induced substantial apoptosis
same,levels of MHC-I,[4],increased levels of MHC-I
same,gene expression changes,[5],concordant gene expression changes
same,most upregulated pathways,[5],"cholesterol homeostasis, MTORC1 signaling, and fatty acid metabolism"
same,pancreatic mass weight,[6]; 30 mg/kg,reduced pancreatic mass weight to that of wild-type mice
same,number of lesions (pathologic assessment),"[6]; mouse, in vivo",decreased numbers of lesions
same,percentage of normal pathology,"[6]; mouse, in vivo",increased percentages of normal pathology
same,"PanIN or PDAC burden (H&E, CK19 IHC)",[6]; [14],relatively reduced PanIN or PDAC burden
same,histologically normal pancreatic tissue (H&E),[6]; [14],increased retention of histopathologically unremarkable pancreatic tissue
same,weights of pancreata,"[6]; prophylactic, 30 mg/kg QD PO for 4 weeks from 6 weeks of age, endpoint 10 weeks",reduced to levels approaching that of wild-type pancreata
same,"apoptosis in tumors (c-PARP levels, TUNEL staining)",[7],increased apoptosis
same,tumor volume,[7],trended downward
same,"LC3 lipidation, indicative of autophagosome levels",[8],increased
same,cellular lipid landscape,[9],induced significant changes in the cellular lipid landscape
same,response rate (TGI %) of six NEPC tumors versus AR-positive tumors,[10],higher response rates
same,anti-tumor effect,[11],confirmed
same,autophagic flux induced by torin-1,"[12]; 4-hour pre-treatment, then torin-1 100 nM 24 hours",decreased
same,basal autophagic flux,[12],decreased
same,histopathology of responder tumors at endpoint,"[13]; mouse, in vivo",necrotic with only microscopic residual tumor cells
same,average tumor volume,[13]; post-ESK981 treatment,strong tumor regression
